29 compounds from the supplement of paper PMC4604168 (melanoma cell lines) can be followed below.

Each structure is given as a SMILES string. Some of the results follow. Many values rest on one well or one pass, so single values are uncertain.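 Cells were imaged in 1,536-well plates, and nuclei stained with an antibody against cleaved PARP were counted against all DNA-stained nuclei to give the apoptosis fraction. Screening doses were chosen to leave most cells alive, and resting and induced cleaved-PARP levels differ strongly between cell lines.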

The test system of one assay is RPMI7951. As to the kind of experiment: cleaved PARP positive nuclei fraction relative to DMSO control; melanoma cells; higher = more apoptosis. The settings on record: library dose: low library concentration; 72 h.
Turning to `CN(c1ncccc1CNc1nc(Nc2ccc3c(c2)CC(=O)N3)ncc1C(F)(F)F)S(C)(=O)=O` + Oc1cc(-c2nc(-c3ccccc3)[nH]c2-c2ccncc2)ccc1Cl [L779450] (first compound 0.08 µM, partner dose 0.2 µM), the “cleaved PARP positive nuclei fraction” value was determined as 291%. As for `NC(=O)c1ccc(N(C(N)=O)c2c(F)cccc2F)nc1-c1ccc(F)cc1F` + COc1ccc(Cl)c(Nc2nc3ccccc3nc2NS(=O)(=O)c2cccc(NC(=O)C(C)(C)N)c2)c1 [XL147] (first compound 0.4 µM, partner dose 0.8 µM), the “cleaved PARP positive nuclei fraction” value came out at 68.5%. Take `CN(c1ncccc1CNc1nc(Nc2ccc3c(c2)CC(=O)N3)ncc1C(F)(F)F)S(C)(=O)=O` + Cc1cc(Nc2cc(N3CCN(C)CC3)nc(/C=C/c3ccccc3)n2)n[nH]1 [ENMD2076] (first compound 0.08 µM, partner dose 0.04 µM): the “cleaved PARP positive nuclei fraction” value is 44.3%.

With `CCCCCCCCc1ccc(CCC(N)(CO)CO)cc1` [fingolimod] + c1cc(-c2cnn3cc(-c4ccc(OCCN5CCCCC5)cc4)cnc23)ccn1 [Dorsomorphin] (first compound 2 µM, partner dose 0.4 µM), the “cleaved PARP positive nuclei fraction” value came to 40.5%.

Turning to `CS(=O)(=O)c1ccc(C(=O)Nc2ccc(Cl)c(-c3ccccn3)c2)c(Cl)c1` [vismodegib] + CC(=O)O[C@@]12CO[C@@H]1C[C@H](O)[C@@]1(C)C(=O)[C@H](O)C3=C(C)[C@@H](OC(=O)[C@H](O)[C@@H](NC(=O)OC(C)(C)C)c4ccccc4)C[C@@](O)([C@@H](OC(=O)c4ccccc4)[C@H]21)C3(C)C [Docetaxel] (first compound 1 µM, partner dose 0.0001 µM), the “cleaved PARP positive nuclei fraction” value came to 273%. `CC(=O)O[C@@]12CO[C@@H]1C[C@H](O)[C@@]1(C)C(=O)[C@H](O)C3=C(C)[C@@H](OC(=O)[C@H](O)[C@@H](NC(=O)OC(C)(C)C)c4ccccc4)C[C@@](O)([C@@H](OC(=O)c4ccccc4)[C@H]21)C3(C)C` [Docetaxel] + COc1cc(Nc2ncc(F)c(Nc3ccc4c(n3)NC(=O)C(C)(C)O4)n2)cc(OC)c1OC [Tamatinib] (first compound 0.0001 µM, partner dose 0.4 µM): the “cleaved PARP positive nuclei fraction” value was found to be 437%. As to `CS(=O)(=O)c1ccc(C(=O)Nc2ccc(Cl)c(-c3ccccn3)c2)c(Cl)c1` [vismodegib] + CC1(C)NC(=O)N(c2ccc([N+](=O)[O-])c(C(F)(F)F)c2)C1=O [nilutamide] (first compound 1 µM, partner dose 1 µM), the “cleaved PARP positive nuclei fraction” value is 130%.

As for `CCN(CC)CCNC(=O)c1c(C)[nH]c(/C=C2\C(=O)Nc3ccc(F)cc32)c1C` [sunitinib] + COCC[n+]1c2c(n(Cc3cnccn3)c1C)C(=O)c1ccccc1C2=O [YM155] (first compound 0.4 µM, partner dose 0.0004 µM), the “cleaved PARP positive nuclei fraction” value turned out to be 202%. Take `NC1(c2ccc(-c3nc4ccn5c(=O)[nH]nc5c4cc3-c3ccccc3)cc2)CCC1` + Nc1ncn([C@H]2C[C@H](O)[C@@H](CO)O2)c(=O)n1 [decitabine] (first compound 0.4 µM, partner dose 0.1 µM): the “cleaved PARP positive nuclei fraction” value is 112%.

For a further assay, the system named is RVH-421. The description is as above. The settings on record: library dose: low library concentration; 72 h.
Turning to `NC1(c2ccc(-c3nc4ccn5c(=O)[nH]nc5c4cc3-c3ccccc3)cc2)CCC1` + Cc1nc(Nc2ncc(C(=O)Nc3c(C)cccc3Cl)s2)cc(N2CCN(CCO)CC2)n1 [dasatanib] (first compound 0.4 µM, partner dose 0.004 µM), the “cleaved PARP positive nuclei fraction” value is 67.5%. On to `C[C@@H](N)c1ccc(C(=O)Nc2ccnc3[nH]ccc23)cc1` + CC(C)(C)c1cnc(CSc2cnc(NC(=O)C3CCNCC3)s2)o1 [SNS-032] (first compound 0.4 µM, partner dose 0.01 µM), for which the “cleaved PARP positive nuclei fraction” value is 152%.

As to `NC(=O)c1ccc(N(C(N)=O)c2c(F)cccc2F)nc1-c1ccc(F)cc1F` + CN1CCN(c2ccc3nc(-c4c(N)c5c(F)cccc5[nH]c4=O)[nH]c3c2)CC1 [Dovitinib] (first compound 0.4 µM, partner dose 0.1 µM), the “cleaved PARP positive nuclei fraction” value came out at 95.5%. For `NC(=O)c1ccc(N(C(N)=O)c2c(F)cccc2F)nc1-c1ccc(F)cc1F` + C[C@]1(O)C[C@@H](c2nc(-c3ccc4ccc(-c5ccccc5)nc4c3)c3c(N)nccn32)C1 [OSI906] (first compound 0.4 µM, partner dose 0.4 µM), the “cleaved PARP positive nuclei fraction” value is 129%. On to `Cn1cnc2c(F)c(Nc3ccc(Br)cc3Cl)c(C(=O)NOCCO)cc21` [selumetinib] + Cn1nnc2c(C(N)=O)ncn2c1=O [temozolomide] (first compound 0.015 µM, partner dose 2 µM), for which the “cleaved PARP positive nuclei fraction” value is 119%.

On to `C[C@]1(O)C[C@@H](c2nc(-c3ccc4ccc(-c5ccccc5)nc4c3)c3c(N)nccn32)C1` + Clc1ccc(Nc2nnc(Cc3ccncc3)c3ccccc23)cc1 [vatalanib] (first compound 0.4 µM, partner dose 2 µM), for which the “cleaved PARP positive nuclei fraction” value was 82.5%.

With `CC1(C)CCC(c2ccc(Cl)cc2)=C(CN2CCN(c3ccc(C(=O)NS(=O)(=O)c4ccc(N[C@H](CCN5CCOCC5)CSc5ccccc5)c(S(=O)(=O)C(F)(F)F)c4)cc3)CC2)C1` + Cc1cc(N2CCOCC2)cc2[nH]c(-c3c(NC[C@@H](O)c4cccc(Cl)c4)cc[nH]c3=O)nc12 [BMS536924] (first compound 0.4 µM, partner dose 0.2 µM), the “cleaved PARP positive nuclei fraction” value came to 234%. In the case of `CC(=O)O[C@@]12CO[C@@H]1C[C@H](O)[C@@]1(C)C(=O)[C@H](O)C3=C(C)[C@@H](OC(=O)[C@H](O)[C@@H](NC(=O)OC(C)(C)C)c4ccccc4)C[C@@](O)([C@@H](OC(=O)c4ccccc4)[C@H]21)C3(C)C` [Docetaxel] + COCC[n+]1c2c(n(Cc3cnccn3)c1C)C(=O)c1ccccc1C2=O [YM155] (first compound 0.0001 µM, partner dose 0.0004 µM), the “cleaved PARP positive nuclei fraction” value was 152%. Take `NC1(c2ccc(-c3nc4ccn5c(=O)[nH]nc5c4cc3-c3ccccc3)cc2)CCC1` + CC(=O)c1c(C)c2cnc(Nc3ccc(N4CCNCC4)cn3)nc2n(C2CCCC2)c1=O [palbociclib] (first compound 0.4 µM, partner dose 0.04 µM): the “cleaved PARP positive nuclei fraction” value was 132%. As for `Cn1sc(=O)n(Cc2ccccc2)c1=O` + Cc1cc([N+](=O)[O-])ccc1NS(=O)(=O)c1cc(Cl)ccc1Cl [FH535] (first compound 0.4 µM, partner dose 1 µM), the “cleaved PARP positive nuclei fraction” value worked out at 67.9%. Turning to `CN(c1ncccc1CNc1nc(Nc2ccc3c(c2)CC(=O)N3)ncc1C(F)(F)F)S(C)(=O)=O` + Nc1cccc2c1CN(C1CCC(=O)NC1=O)C2=O [lenalidomide] (first compound 0.08 µM, partner dose 1 µM), the “cleaved PARP positive nuclei fraction” value was determined as 81.6%. As for `NC(=O)c1ccc(N(C(N)=O)c2c(F)cccc2F)nc1-c1ccc(F)cc1F` + C[C@]1(c2nc3c(C(N)=O)cccc3[nH]2)CCCN1 [Veliparib] (first compound 0.4 µM, partner dose 1.4 µM), the “cleaved PARP positive nuclei fraction” value came out at 125%. As to `CCCCCCCCc1ccc(CCC(N)(CO)CO)cc1` [fingolimod] + O=C(O)c1ccc2c(c1)nc(Nc1cccc(Cl)c1)c1ccncc12 [CX4945] (first compound 2 µM, partner dose 0.4 µM), the “cleaved PARP positive nuclei fraction” value is 105%. `C[C@@H](N)c1ccc(C(=O)Nc2ccnc3[nH]ccc23)cc1` + Cc1cc(N2CCOCC2)cc2[nH]c(-c3c(NC[C@@H](O)c4cccc(Cl)c4)cc[nH]c3=O)nc12 [BMS536924] (first compound 0.4 µM, partner dose 0.2 µM): the “cleaved PARP positive nuclei fraction” value was determined as 166%. `CCCCCCCCc1ccc(CCC(N)(CO)CO)cc1` [fingolimod] + C=CCn1c(=O)c2cnc(Nc3ccc(N4CCN(C)CC4)cc3)nc2n1-c1cccc(C(C)(C)O)n1 [MK1775] (first compound 2 µM, partner dose 0.02 µM): the “cleaved PARP positive nuclei fraction” value stood at 54.9%.

Consider `CN(c1ncccc1CNc1nc(Nc2ccc3c(c2)CC(=O)N3)ncc1C(F)(F)F)S(C)(=O)=O` + Nc1nc(F)nc2c1ncn2[C@@H]1O[C@H](CO)[C@@H](O)[C@@H]1O [fludarabine] (first compound 0.08 µM, partner dose 0.2 µM), for which the “cleaved PARP positive nuclei fraction” value worked out at 89.8%. Consider `C[C@@H](N)c1ccc(C(=O)Nc2ccnc3[nH]ccc23)cc1` + CS(=O)(=O)CCNCc1ccc(-c2ccc3ncnc(Nc4ccc(OCc5cccc(F)c5)c(Cl)c4)c3c2)o1 [lapatinib] (first compound 0.4 µM, partner dose 0.8 µM), for which the “cleaved PARP positive nuclei fraction” value amounted to 184%. On to `NC(=O)c1ccc(N(C(N)=O)c2c(F)cccc2F)nc1-c1ccc(F)cc1F` + CS(=O)(=O)CCNCc1ccc(-c2ccc3ncnc(Nc4ccc(OCc5cccc(F)c5)c(Cl)c4)c3c2)o1 [lapatinib] (first compound 0.4 µM, partner dose 0.8 µM), for which the “cleaved PARP positive nuclei fraction” value came to 304%. On to `CS(=O)(=O)c1ccc(C(=O)Nc2ccc(Cl)c(-c3ccccn3)c2)c(Cl)c1` [vismodegib] + O=C(O)c1ccc2c(c1)nc(Nc1cccc(Cl)c1)c1ccncc12 [CX4945] (first compound 1 µM, partner dose 0.4 µM), for which the “cleaved PARP positive nuclei fraction” value came out at 80.8%. With `CC(=O)O[C@@]12CO[C@@H]1C[C@H](O)[C@@]1(C)C(=O)[C@H](O)C3=C(C)[C@@H](OC(=O)[C@H](O)[C@@H](NC(=O)OC(C)(C)C)c4ccccc4)C[C@@](O)([C@@H](OC(=O)c4ccccc4)[C@H]21)C3(C)C` [Docetaxel] + CCc1ccc(CCOc2ccc(CC3SC(=O)NC3=O)cc2)nc1 [pioglitazone] (first compound 0.0001 µM, partner dose 2 µM), the “cleaved PARP positive nuclei fraction” value turned out to be 176%.
